Out of some 300,000 compounds screened, about 3,700 (1.2%) were called active. Inconclusive means that the source gave no clear call. Such entries were picked first, then a sample of the others. Calls come from the whole dose curve; tested in HEK293 cells. Potencies beside an inconclusive call are fits to weak or partial responses and may not hold up.
Test: qHTS for Inhibitors of binding or entry into cells for Lassa Virus; note: nearly all actives have a fitted effect of over 50% in size
Conditions: Lassa virus pseudotype entry inhibition, cell reporter; series mostly up to 37.9 µM
Potency is the fitted concentration of half-maximal effect.

SMILES | Potency
COc1ccc(N2CCN(C(=O)COc3cccc4ccccc34)CC2)cc1 | inconclusive: 15.8 µM [inhibitor, partial curve, poor fit]
O=C(CN1CCN(c2ccc(O)cc2)CC1)N(C1CC1)C1CCS(=O)(=O)C1 (stereo not given) | inactive
CCCS(=O)(=O)c1c(S(=O)(=O)CCC)c2c(C)cccn2c1C(=O)OC | inactive
CCOc1cc(/C=C2\CCC/C(=C\c3cc(Cl)c(O)c(OCC)c3)C2=O)cc(Cl)c1O | active: 8.91 µM
CCOC(=O)c1ccc(NCCOC)c([N+](=O)[O-])c1 | inconclusive: 0.316 µM [inhibitor, partial curve, poor fit]
CC/C(=N\Nc1ccccc1)c1c(O)n(-c2ccc(OC)cc2)c(=O)[nH]c1=O | inconclusive: 0.282 µM [inhibitor, full curve, poor fit]
CCOC(=O)c1cc(-c2ccccc2)n(-c2cccc(C(=O)Nc3cccc(SC)c3)c2)c1C | inactive
COc1ccc2cc(-c3c(-c4ccncc4)nc(-c4ccc(S(C)=O)cc4C)n3C)ccc2c1 (stereo not given) | inconclusive: 0.396 µM [inhibitor, full curve, poor fit]
CCN(CC(=O)Nc1c(F)cccc1F)C(=O)c1cc(-c2cccs2)nn1-c1ccccc1 | inactive
Cc1noc(C)c1C(=O)OCC(=O)c1c[nH]c2ccccc12 | inconclusive: 18.3 µM [activator, single point]
Cc1ccc(-c2cc(=O)[nH]c(NCc3ccccc3)n2)cc1 | inconclusive: 0.708 µM [inhibitor, full curve, poor fit]
CCOC(=O)N1CCC(N2Cc3cccc(C(=O)Nc4ccc(N(CC)CC)cc4C)c3C2=O)CC1 | inactive
O=C(NCCCn1ccnc1)c1ccc(N2CCCCC2)c([N+](=O)[O-])c1 | inconclusive: 8.91 µM [inhibitor, partial curve, poor fit]
COc1ccc(C(=O)/C=C/c2ccc(C)cc2)c(OC(=O)c2ccc([N+](=O)[O-])cc2)c1 | inconclusive: 14.6 µM [activator, partial curve, poor fit]
COC(=O)c1ccc(NC(=O)CCN2CCN(Cc3ccccc3)CC2)cc1 | inactive
CCOC(=O)c1cc(C(=O)NCc2ccc(Cl)cc2Cl)nn1C | inconclusive: 35.5 µM [inhibitor, single point]
Cc1nn(-c2ccccc2)c(N)c1N=Nc1cccc(S(=O)(=O)N2CCOCC2)c1 | inconclusive: 22.4 µM [inhibitor, single point]
C=C(C)C(=O)Oc1ccc(N=Nc2ccc(C)cc2)ccc1=O | inconclusive: 7.08 µM [inhibitor, full curve]
O=C(Nc1cccc(S(=O)(=O)N2CCCCC2)c1)c1ccc2c(=O)n3c(nc2c1)CCCCC3 | inconclusive: 3.16 µM [inhibitor, single point]
Cn1c(NCc2ccccc2)cc(=O)n(C)c1=O | inconclusive: 0.411 µM [activator, full curve, poor fit]
S=c1[nH]cc(Cc2ccccc2)s1 | inconclusive: 7.08 µM [activator, full curve, poor fit]
C[n+]1c2n(c3ccccc31)N=C(c1ccc(Cl)cc1)CS2 | inconclusive: 25.9 µM [inhibitor, single point]
O=C(Nc1ccc(N2CCN(c3ccccc3)CC2)c(F)c1)C1CC1 | inconclusive: 20.6 µM [inhibitor, partial curve, poor fit]
Cc1ccc(SCC(=O)OCC(=O)N(CC(C)C)c2c(N)n(Cc3ccccc3)c(=O)[nH]c2=O)c(C)c1 | inconclusive: 22.4 µM [inhibitor, partial curve]

SMILES | Potency
Nc1ccccc1SC1CC(=O)N(c2ccc3c(c2)OCCO3)C1=O (stereo not given) | inactive
Cc1ccc(S(=O)(=O)Nc2ccccc2C(=O)Nc2nc(-c3ccc(F)cc3)cs2)cc1 | active: 3.26 µM
COc1cccc(NC(=O)CN(C)C(=O)c2cc(-c3ccccc3)nc3ccc(C)cc23)c1 | inconclusive: 7.94 µM [inhibitor, partial curve, poor fit]
CCc1ccc(-c2csc3nc[nH]c(=O)c23)cc1 | inconclusive: 6.31 µM [activator, single point]
COc1ccc(C(C#N)N2CCC(c3ccccc3)=N2)cc1 (stereo not given) | inactive
CCc1ccc(-n2c(=O)c3c4c(sc3n(Cc3ccccc3C#N)c2=O)CCCC4)cc1 | inactive
C=CCOc1ccccc1CNn1nnnc1N | inconclusive: 0.461 µM [inhibitor, full curve, poor fit]
COc1cc(NC(=O)CC2C(=O)N(c3ccccc3)C(=O)N2Cc2ccc(F)cc2)cc(OC)c1 (stereo not given) | inactive
O=C(Cn1ncc2c([nH]c3ccccc32)c1=O)NCCCN1CCN(c2ccc(F)cc2)CC1 | inactive
COc1ccc(CN(C)CC(O)COC(c2ccc(OC)cc2)c2ccc(OC)cc2)cc1 (stereo not given) | inconclusive: 31.6 µM [inhibitor, single point]
Cc1cc(-c2cc(N)n(-c3ccccc3)n2)c(C)n1C1CCCC1 | inactive
COc1ccc(OC)c(NC(=O)CSc2nc(=O)n(CCN(C)C)c3c2CCC3)c1 | inactive
Cn1c(=O)c2c(SCC(=O)Nc3cccc(F)c3)nc(-c3ccco3)nc2n(C)c1=O | inactive
CC(=O)c1ccc(NC(=S)Nc2cccc3cnccc23)cc1 | inconclusive: 35.5 µM [inhibitor, single point]
CC(=O)c1cc(CCC(=O)NC2CCCCCC2)oc1C | inconclusive: 10 µM [activator, partial curve, poor fit]
COc1cccc(NC2=C(Cl)C(=O)OC2OC(=O)c2ccco2)c1 (stereo not given) | inactive
Cc1cccc(NC(=O)Cn2nc(-c3ccccc3)c3cnc4ccccc4c32)c1 | inactive
Cc1ccccc1Nc1cc(C(=O)NCc2ccco2)c2ccccc2n1 | inactive
Cc1ccc(Nc2ccc3cc(S(=O)(=O)N4CCC(C)CC4)ccc3n2)c(Cl)c1 | inactive
C=CCn1c(SCC(=O)Nc2ccc(-c3nc4ccc(C)cc4s3)cc2)nnc1-c1ccccc1 | inconclusive: 10 µM [inhibitor, partial curve, poor fit]
O=S(=O)(NCCC(c1ccc(F)cc1)c1ccco1)c1ccccc1 (stereo not given) | inactive
CCC(=O)N(CCC(c1ccc(C)cc1)c1ccco1)Cc1ccco1 (stereo not given) | inconclusive: 17.8 µM [inhibitor, partial curve, poor fit]
CCCOCc1ccc(O)c2ncccc12 | inconclusive: 35.5 µM [inhibitor, single point]
COc1ccccc1C(=O)NC(=O)COC(=O)c1cccc(OC(F)F)c1 | inactive

Some of these compounds in order of molar mass, falling.
SMILES | Potency
COc1ccc(C(=O)/C=C/c2ccc(C)cc2)c(OC(=O)c2ccc([N+](=O)[O-])cc2)c1 | inconclusive: 14.6 µM [activator, partial curve, poor fit]
COc1ccccc1C(=O)NC(=O)COC(=O)c1cccc(OC(F)F)c1 | inactive
CCOC(=O)c1cc(C(=O)NCc2ccc(Cl)cc2Cl)nn1C | inconclusive: 35.5 µM [inhibitor, single point]
CC(=O)c1cc(CCC(=O)NC2CCCCCC2)oc1C | inconclusive: 10 µM [activator, partial curve, poor fit]
S=c1[nH]cc(Cc2ccccc2)s1 | inconclusive: 7.08 µM [activator, full curve, poor fit]

Later entries.

SMILES | Potency
COc1ccc(Cn2c(O)c(C=Nc3ccc(OC)cc3)c3ccccc3c2=O)cc1 | inconclusive: 0.316 µM [inhibitor, partial curve]
COc1cc(CN2CCCCC2C(=O)Nc2ccc(Oc3ccccc3)nc2)ccc1O (stereo not given) | inactive
CCCCC(=O)Nc1ccc2nc(SCC(=O)N3CCc4ccccc43)sc2c1 | inactive
COc1cc(/C=N/NC(=O)C2(O)c3ccccc3-c3ccccc32)ccc1O | inconclusive: 35.5 µM [activator, single point]
CCCCc1ccc(Nc2ncccc2C#N)cc1 | inconclusive: 14.1 µM [activator, partial curve, poor fit]
COc1ccc(C(C)=O)cc1CSc1nnc(SCc2cc(C(C)=O)ccc2OC)s1 | inconclusive: 3.55 µM [inhibitor, single point]
Cc1cc(C(F)(F)F)cc(NNC(=O)NC(=O)c2c(F)cccc2Cl)n1 | inconclusive: 3.16 µM [inhibitor, partial curve, poor fit]
Cc1ccc(-c2ccc(CN3C(C)C(=O)N(Cc4cn(Cc5ccco5)nn4)CCS3(=O)=O)cc2)c(C)c1 (stereo not given) | inconclusive: 17.7 µM [inhibitor, partial curve]
CCc1ccc2nc(N(Cc3cccnc3)C(=O)c3ccc(C#N)cc3)sc2c1 | inactive
Cc1cc(=O)[nH]c(N/N=C/c2c(C)nn(-c3ccccc3Cl)c2Cl)n1 | active: 11.2 µM
O=C(/C=C/c1ccco1)NC(=S)Nc1ccc(C(=O)O)cc1 | inactive
CCCN1CN(Cc2ccco2)c2nc3ccccc3n2C1 | inactive
CCNC(=S)NNC(=O)c1cc(-c2cccc(OCC)c2)nc2ccccc12 | inactive
CC(C)CCN(C(=O)CNC(=O)c1ccco1)C(C(=O)NC1CCCCC1)c1ccco1 (stereo not given) | inconclusive: 12.6 µM [inhibitor, partial curve, poor fit]
Cc1onc(-c2c(F)cccc2Cl)c1C(=O)NNC(=O)C1CCN(Cc2cccc(F)c2)CC1 | inactive
CNC(=O)CN(c1cc(OCCOC)c(Cl)cc1Cl)S(=O)(=O)c1ccccc1 | inconclusive: 8.91 µM [inhibitor, partial curve, poor fit]
CS(=O)(=O)N1CCC(C(=O)N2CCN(c3ccccc3F)CC2)CC1 | inconclusive: 11.2 µM [inhibitor, partial curve, poor fit]
CCOC(=O)C1(CCc2ccccc2)CCN(C(=O)c2occc2C)CC1 | inconclusive: 35.5 µM [inhibitor, single point]
COc1ccc2cc(-c3nc4ccccc4n3C)c(=O)oc2c1 | inconclusive: 2.06 µM [activator, partial curve, poor fit]
O=C(Nc1ccc(F)cc1F)C1CCN(c2ncccn2)CC1 | inactive
CCC1CCC/C1=N\NC(=O)c1ccccc1C (stereo not given) | inconclusive: 35.5 µM [activator, single point]
CCOc1ccc(S(=O)(=O)Nc2ccccc2SC)c2cccnc12 | inconclusive: 6.31 µM [activator, single point]

Source: PubChem BioAssay AID540256 (National Center for Advancing Translational Sciences (NCATS), 2011)
